# Whole data set: some 33,000 sequences, median “E-score (-0.5 to 0.5)” near -8e-05, cut for the highest 2% near 0.23. Some of the results follow.
# Biological target: T1, Nrg2 (UniProt P38082)
# T1 sequence: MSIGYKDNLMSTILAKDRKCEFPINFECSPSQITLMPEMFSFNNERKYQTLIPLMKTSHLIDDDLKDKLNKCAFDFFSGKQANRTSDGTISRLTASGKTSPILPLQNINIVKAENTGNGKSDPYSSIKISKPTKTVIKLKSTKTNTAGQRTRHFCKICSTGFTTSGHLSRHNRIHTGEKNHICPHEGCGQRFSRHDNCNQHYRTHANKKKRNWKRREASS
# Assay: PBM E-score (8-mer binding enrichment) (E-score (-0.5 to 0.5)); higher = stronger / more preferred TF binding
# Details: protein concentration: 100 nM; construct: GST-full length
# Outline: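 Using PURExpress in vitro transcription/translation, GST-tagged yeast transcription factors were made in full-length or DNA-binding-domain form. These were applied at about 100-200 nM to double-stranded universal all-10-mer Agilent arrays, and bound protein was detected with fluorescent anti-GST. Scans were normalised with masliner before the Universal PBM Analysis Suite assigned E-scores to ungapped eight-base words pooled with their reverse complements.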
row,Sequence,PBM E-score
1,GGGTTCAC,0.142
2,GGGATCTA,0.186
3,ATGATCAG,0.027
4,CAGTAGTA,0.0461
5,TCGCATCA,0.0779
6,GAGTATCA,0.00367
7,ACCACCAA,-0.0801
8,ATGTGAAA,-0.0675
9,ACAATTCT,0.108
10,GCTGTAGA,-0.122
11,AAGTGCTC,-0.139
12,CTCAGTGA,-0.213
13,CTAGAACC,-0.0469
14,ATCCGCAT,0.116
15,CGATCTCA,0.0542
16,AAACTTGT,0.00567
17,GGGCCGAA,-0.0671
18,CGGTTAGA,-0.175
19,CCCCGAGG,-0.0349
20,ACGTTCTG,0.0935
21,ACATTGCA,0.136
22,AACGCCCG,0.00625
23,CATGAAGC,-0.0144
24,GATGGTCC,-0.0427
25,ACGCAATA,0.228

row,Sequence,PBM E-score
1,GACGTCCA,0.0581
2,TATGTTGA,-0.0403
3,CCAGGACA,0.109
4,ACACTTAC,0.0076
5,AGTCAAGG,-0.174
6,GCTCGAAC,0.191
7,GCGAGGAA,0.0829
8,GGCTCCAC,-0.271
9,AACAGAGG,0.0203
10,ACTCACAC,0.0176
11,GTCCAAAC,-0.063
12,AAATAGAC,0.165
13,AGAGGTTG,-0.134
14,GTACCATA,-0.0397
15,CGTACGTC,-0.285
16,AGTTCGCG,0.106
17,ATAAAGCG,-0.0921
18,GATGAGAA,0.0492
19,CCGTCCGC,-0.23
20,CAGGGTGC,0.19
21,AAGCAACA,0.0458
22,AATATATG,0.225
23,ACACGGGC,-0.092
24,CGTCAGCA,0.0515
25,AGTACTCC,-0.0866

row,Sequence,PBM E-score
1,GATCTAAC,-0.0514
2,AACAGTCT,-0.195
3,AATTTTCT,0.0132
4,ATTTGAAC,0.0934
5,CCCGATTC,-0.0963
6,AACAAAGT,0.26
7,ATAAATCC,0.142
8,ACACTGAC,0.0969
9,CTTCGTCA,0.0727
10,CGATACAC,-0.0593
11,TACGCCAA,-0.211
12,AAAGGGCG,0.0812
13,CCCGCCAC,0.269
14,CGCCGAGA,0.0142
15,CGTGGCTA,-0.162
16,CATCAGCA,0.0503
17,ACCGTTCG,0.0627
18,CATTGGGA,-0.111
19,AATCAATA,0.179
20,GATCCATC,0.0646
21,CGCTCTGA,-0.0124
22,ACGAAGAC,-0.135
23,CCCCGGTC,-0.118
24,AAGTGTTG,0.109
25,AACCAATA,0.13

row,Sequence,PBM E-score
1,CCCCTCCG,-0.231
2,TACAGTCA,0.143
3,AACGAACC,0.155
4,CCAGTTGC,-0.17
5,TGCCCCCA,-0.311
6,TGAGAGCA,-0.0315
7,ACAGCGAA,0.0147
8,ATCATTAA,0.171
9,AAATCTGT,0.0187
10,CAGTGTTC,0.172
11,AGCCCAAG,-0.0906
12,CCACTGCG,0.0191
13,ATCTCGTC,0.162
14,AAAATAGT,0.0248
15,ACAAGCGA,0.149
16,GAGCGGCC,-0.0758
17,CCTGATAC,0.229
18,CAAGAGGC,-0.0374
19,ACTTAACG,-0.143
20,CACGCTGC,-0.215
21,CCTTCGAC,-0.206
22,GATCTCTA,-0.182
23,AGGTCCAC,-0.199
24,AAAGCGGT,-0.206
25,ATGTTCGC,-0.113

row,Sequence,PBM E-score
1,ACCTGTCA,0.106
2,CACCTATG,0.0545
3,CATGTTCC,-0.128
4,ATAGATGG,-0.093
5,CTGCTCTA,0.0167
6,GCGTGCTA,-0.163
7,CGGCACGA,0.0169
8,ACACCTAG,-0.108
9,CGCCTTTA,-0.0551
10,CAATTATA,0.0143
11,CCAGTCTA,-0.151
12,GCTTGTGA,-0.114
13,CGGTAGTA,-0.0986
14,ACGGGTGC,0.0229
15,GCTGCCTA,0.0864
16,AAATCTAC,0.0697
17,CCCTGTCA,0.0427
18,AATGCAAT,-0.287
19,CGAACCAG,0.132
20,GGTTGTTA,0.126
21,TCTACCAA,-0.0391
22,ACCCTGGA,0.279
23,AGGGCAGA,-0.0343
24,ATCGAGCG,0.229
25,ACAGACCT,0.00105

row,Sequence,PBM E-score
1,GATCTACA,0.0846
2,CAAAGGTC,-0.00259
3,AAAATTCA,0.199
4,ACGGTTGA,-0.049
5,AGTACCCG,0.00561
6,CCAGTCGA,0.0204
7,AATCGGAT,0.121
8,AGTCTTCG,-0.228
9,GGGAACGA,-0.135
10,CAGTGGGA,-0.0307
11,CATCAAAC,0.047
12,GGGTTGGA,-0.0866
13,CGGAGAAG,-0.161
14,CTTACGGA,-0.243
15,CCCACAAA,0.247
16,AAATAGTG,0.111
17,AACTCTCA,-0.0436
18,CTCCTGGC,-0.0132
19,AGTAAGAT,0.115
20,GACTGGAA,-0.0853
21,CGACAGTA,0.0257
22,AGGCGCCC,-0.0716
23,ATATTGCC,0.052
24,AACACACC,0.0532
25,AGTACATC,0.0621

# Shown tab-delimited: entries from further up
row	Sequence	PBM E-score
5	CTGCTCTA	0.0167
6	GCGTGCTA	-0.163
7	CGGCACGA	0.0169
8	ACACCTAG	-0.108
9	CGCCTTTA	-0.0551
10	CAATTATA	0.0143
11	CCAGTCTA	-0.151
12	GCTTGTGA	-0.114
13	CGGTAGTA	-0.0986
14	ACGGGTGC	0.0229
15	GCTGCCTA	0.0864
16	AAATCTAC	0.0697
17	CCCTGTCA	0.0427
18	AATGCAAT	-0.287
19	CGAACCAG	0.132
20	GGTTGTTA	0.126
21	TCTACCAA	-0.0391
22	ACCCTGGA	0.279
23	AGGGCAGA	-0.0343
24	ATCGAGCG	0.229
25	ACAGACCT	0.00105
1	GATCTACA	0.0846
2	CAAAGGTC	-0.00259
3	AAAATTCA	0.199
4	ACGGTTGA	-0.049
5	AGTACCCG	0.00561
6	CCAGTCGA	0.0204
7	AATCGGAT	0.121
8	AGTCTTCG	-0.228
9	GGGAACGA	-0.135
10	CAGTGGGA	-0.0307
11	CATCAAAC	0.047
12	GGGTTGGA	-0.0866
13	CGGAGAAG	-0.161
14	CTTACGGA	-0.243
15	CCCACAAA	0.247
16	AAATAGTG	0.111
17	AACTCTCA	-0.0436
18	CTCCTGGC	-0.0132
19	AGTAAGAT	0.115
20	GACTGGAA	-0.0853
21	CGACAGTA	0.0257

# (next part)

row,Sequence,PBM E-score
1,ACAAAGTA,0.0772
2,ACGCCCAA,0.0467
3,CGGCTGGA,0.0573
4,AGTAATAC,-0.0266
5,GGCGCAAC,0.118
6,AGTGAATA,0.0436
7,ACCTCTAG,-0.0929
8,AAAGTAAC,0.0532
9,CACTAGTC,-0.122
10,TCAGAACA,0.0113
11,AAGGAAGG,-0.0583
12,GCTGTCAA,-0.023
13,GTGCACTA,0.117
14,CGGTAAGA,-0.0669
15,AAGTGAGT,-0.0427
16,ACCAGTGC,-0.347
17,CCCACGGG,-0.15
18,AACTGTGC,-0.0641
19,CAAGCTCC,-0.235
20,CATTGCGC,-0.0495
21,AATTCCCT,-0.00789
22,GGCACCAC,-0.0855

# From the supplement of paper PMC3334620
